Values joined by “and” are separate entries in the source; they are usually repeats but may differ in a detail not shown here. Identical values can stand only once. Toxic doses and inconclusive results are not listed. Rule for the calls: active = survival T/C of 150% or more; inactive = T/C below 125% in these data.
Tested on: CD2F1 mice, L1210 leukemia sc, survival T/C
Assay: NCI In Vivo Anticancer Drug Screen. Data for tumor model L1210 Leukemia (subcutaneous) in CD2F1 (CDF1) mice
Settings: endpoint: median survival time, higher = longer survival
Procedure: The antitumor activity of compounds was measured in mice bearing transplantable tumors. Survival or tumor size were measured and the results are expressed as the measurement made in the treated group (T) divided by the measurement made in the vehicle treated control group (C). The tumor model used in this assay is L1210 Leukemia (subcutaneous) in CD2F1 (CDF1) mice

Measured: T/C

COc1c(O)cc2c(c1OC)-c1ccc(SC)c(=O)cc1C(NC(C)=O)CC2 (stereo unspecified)
inactive: dose: 0.31 mg/kg/injection, schedule: Q01DX009 (ip), vehicle: DMSO 110 % of control | dose: 0.63 mg/kg/injection, schedule: Q01DX009 (ip), vehicle: DMSO 110 % of control | dose: 1.25 mg/kg/injection, schedule: Q01DX009 (ip), vehicle: DMSO 111 % of control | dose: 2.5 mg/kg/injection, schedule: Q01DX009 (ip), vehicle: DMSO 106 % of control | dose: 5.0 mg/kg/injection, schedule: Q01DX009 (ip), vehicle: DMSO 104 % of control

COc1cc2c(c(OC)c1OC)-c1ccc(OC)c(=O)cc1[C@@H](N)CC2
inactive: dose: 0.62 mg/kg/injection, schedule: Q01DX009 (ip), vehicle: saline with Tween-80 = 100 % of control | dose: 0.62 mg/kg/injection, schedule: Q01DX009 (sc), vehicle: saline with Tween-80 = 103 % of control | dose: 0.62 mg/kg/injection, schedule: Q01DX009 (sc), vehicle: saline 106 % of control | dose: 1.25 mg/kg/injection, schedule: Q01DX009 (ip), vehicle: saline with Tween-80 = 105 % of control | dose: 1.25 mg/kg/injection, schedule: Q01DX009 (sc), vehicle: saline with Tween-80 = 108 % of control | dose: 1.25 mg/kg/injection, schedule: Q01DX009 (sc), vehicle: saline 116 % of control | dose: 2.5 mg/kg/injection, schedule: Q01DX009 (ip), vehicle: saline with Tween-80 = 110 % of control | dose: 2.5 mg/kg/injection, schedule: Q01DX009 (ip), vehicle: saline 120 % of control | dose: 2.5 mg/kg/injection, schedule: Q01DX009 (sc), vehicle: saline with Tween-80 = 123 % of control | dose: 2.5 mg/kg/injection, schedule: Q01DX009 (sc), vehicle: saline 118 % of control and 124 % of control | dose: 3.3 mg/kg/injection, schedule: Q01DX009 (sc), vehicle: saline 114 % of control | dose: 3.8 mg/kg/injection, schedule: Q01DX009 (sc), vehicle: saline 121 % of control | dose: 5.0 mg/kg/injection, schedule: Q01DX009 (sc), vehicle: saline 111 % of control | dose: 7.5 mg/kg/injection, schedule: Q01DX009 (ip), vehicle: saline 102 % of control | dose: 7.5 mg/kg/injection, schedule: Q01DX009 (sc), vehicle: saline 92 % of control | dose: 10.0 mg/kg/injection, schedule: Q01DX009 (ip), vehicle: saline 90 % of control | dose: 10.0 mg/kg/injection, schedule: Q01DX009 (sc), vehicle: saline 123 % of control | dose: 15.0 mg/kg/injection, schedule: Q01DX009 (sc), vehicle: saline 104 % of control | dose: 20.0 mg/kg/injection, schedule: Q01DX009 (ip), vehicle: saline with Tween-80 = 96 % of control | dose: 20.0 mg/kg/injection, schedule: Q01DX009 (sc), vehicle: saline 122 % of control | dose: 40.0 mg/kg/injection, schedule: Q01DX009 (sc), vehicle: saline 104 % of control
